From EP0310585B1, “Octapeptide inhibitors of myristoylating enzymes” (WASHINGTON UNIVERSITY, priority 1987, dated 1989)
Not every detail of the peptide structures is certain; ends, links or a residue may be inferred. Where no end group is shown, it is not given here.

Biological target: T1, N-myristoylglycylpeptide synthetase (N-myristoyl transferase or NMT) (Saccharomyces cerevisiae, UniProt P14743)
T1 construct: endogenous in cells; host or cells: S. cerevisiae strain JR153
T1 sequence (P14743 1-455): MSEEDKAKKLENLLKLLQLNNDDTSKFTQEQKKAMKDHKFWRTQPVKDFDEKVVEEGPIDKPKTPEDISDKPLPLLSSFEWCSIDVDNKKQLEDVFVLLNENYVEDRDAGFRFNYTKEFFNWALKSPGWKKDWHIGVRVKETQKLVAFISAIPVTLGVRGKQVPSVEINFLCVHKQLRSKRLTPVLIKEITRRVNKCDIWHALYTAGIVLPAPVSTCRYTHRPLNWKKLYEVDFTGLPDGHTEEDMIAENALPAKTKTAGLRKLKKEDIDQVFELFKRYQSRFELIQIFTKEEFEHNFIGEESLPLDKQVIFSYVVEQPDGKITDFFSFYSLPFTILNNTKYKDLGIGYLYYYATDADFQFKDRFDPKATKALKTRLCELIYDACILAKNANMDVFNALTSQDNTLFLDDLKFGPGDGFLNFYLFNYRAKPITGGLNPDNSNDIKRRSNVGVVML
Assay: Octapeptide substrate specificity / kinetic characterization with partially purified yeast myristoylating enzyme (Table II)
Type: biochemical
Details: 1 µCi [³H]-myristic acid per tube
Protocol: The synthetic octapeptides I and II were initially used to identify a unique enzymatic activity which transfers myristic acid to the amino terminal glycine of this and other peptides. […] The enzyme activity was determined in an in vitro assay which measures the transfer of [³H]-myristic acid to the acceptor peptide, […]. The transfer reaction is dependent on adenosine triphosphate (ATP) and coenzyme A (CoA). The enzymatic product was then identified by high performance liquid chromatography (HPLC) by co-elution with a chemically synthesized myristoyl peptide standard. […] Both contained M-myristoyl glycine.
Assay for N-myristoylglycylpeptide synthetase activity. [³H]Fatty acyl CoA was synthesized enzymatically and added to the incubation as follows. […] Typically, 40% to 50% of the [³H]fatty acid was converted to its CoA ester by this procedure as measured by determining the radioactivity remaining in the reaction after acidification with 6 N HCl to pH 2.0 and extraction 6 times with 5 volumes of heptane, a modification of the method of Hosaka et al., Meth. […] One minute fractions were collected and the radioactivity in each fraction determined by liquid scintillation counting. […]

Substance | Km
GLAAAARR-NH2 [Gly-Leu-Ala-Ala-Ala-Ala-Arg-Arg] | 300 µM
GVAAAARR-NH2 [Gly-Val-Ala-Ala-Ala-Ala-Arg-Arg] | 700 µM
